“And” between values parts separate entries of the source, which are not always exact repeats. Identical values can stand only once. In all, about 400,000 compounds went through this assay and about 5,500 (1.4%) were called active. Inconclusive results, whose numbers are uncertain, are shown with a selection of clear calls. The call rests on the fitted dose curve; in most records, active means well fitted cell-killing curve with a large enough effect; inconclusive means small, poorly fitted or top-dose-only effect, or effect the other way; inactive means flat fitted curve, though single readings scatter. Potencies of inconclusive entries are doubtful fits and often do not repeat.
assay: qHTS assay for MDR1-selective chemotherapeutics: Primary screen using the parental adenocarcinoma cell KB-3-1; settings: KB-3-1 viability, CellTiter-Glo ATP luminescence, 72 h; series mostly up to 46.1 µM; further: nearly all actives have a fitted effect of over 60% in size
Outline: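 Screening of KB-3-1 cells (DMEM, 10% FBS, phenol-red free) ran from lowest to highest compound concentration; after 72 h at 37 °C viability was read luminescently and curves fitted.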
Potency means the concentration at half of the fitted maximal effect.

| Structure (SMILES) | Potency |
| --- | --- |
| CC1Cc2ccccc2N1S(=O)(=O)c1nnc(NC(=O)c2cccc(F)c2)s1 (stereo not given) | inconclusive: 29.1 µM [cytotoxic, single point] |
| COc1ccc(CNc2nc3ccccc3s2)cc1OC | inactive |
| Cc1ccc(F)cc1CNC(=O)c1cc(COc2ccc3ncccc3c2)on1 | inactive |
| Cc1cccc(OCCn2c(NC(=O)c3ccco3)nc3ccccc32)c1 | inconclusive: 29.1 µM [cytotoxic, single point] |
| O=C1c2ccccc2NC(c2ccc(-c3cccc([N+](=O)[O-])c3)o2)N1O (stereo not given) | inconclusive: 20.6 µM [cytotoxic, single point] |
| O=C(CSc1ccc2c(c1)OCCO2)N1CCN(c2ccccc2O)CC1 | inconclusive: 0.259 µM [cytotoxic, full curve] |
| CCn1nnc2cc(C(=O)Nc3ccc(C)c(Cl)c3)ccc21 | inactive |
| CC1=C(C(=O)OC2CCCCC2)C(c2ccco2)C2=C(CC(C)(C)CC2=O)N1 (stereo not given) | inconclusive: 29.1 µM [cytotoxic, single point] |
| O=C(Nc1ccc(S(=O)(=O)N2CCCCC2)cc1)C1CC(=O)N(c2ccc(Cl)cc2)C1 (stereo not given) | inconclusive: 29.1 µM [cytotoxic, single point] |
| S=C(Nc1ccc(Oc2ccccc2)cc1)NC1CCCCCC1 | inconclusive: 29.1 µM [cytotoxic, single point] |
| O=C(C[n+]1ccccc1Br)c1ccc(Cl)cc1 | inactive |
| COc1ccc(NC(=O)c2ccc(S(=O)(=O)N(C)c3ccccc3)cc2)cc1S(=O)(=O)N1CCOCC1 | inconclusive: 29.1 µM [cytotoxic, single point] |
| COC(=O)c1c(-c2ccccc2)c[nH]c1C | inconclusive: 18.4 µM [cytotoxic, partial curve] |
| CCc1c(-c2ccc(OC)cc2)ncn1Cc1cccc(-c2ccccc2)c1 | inconclusive: 18.4 µM [cytotoxic, partial curve] |
| O=C(Nc1ccc(Cl)cc1)ON=C1CCCC1 | inconclusive: 25.9 µM [cytotoxic, partial curve, poor fit] |
| CC(C)c1ccccc1NC(=O)CCc1nc2ccccc2s1 | inactive |
| Cc1nnc(SCC(=O)Nc2ccc(S(N)(=O)=O)cc2)n(N)c1=O | inconclusive: 2.91 µM [rising, partial curve] |
| O=C(NCc1ccncc1)c1ccc(Cn2cc(C(F)(F)F)ccc2=O)cc1 | inactive |
| COc1ccccc1-c1cc(C(F)(F)F)nc(S(=O)(=O)CCCC(=O)NCc2ccc(F)cc2)n1 | inconclusive: 20.6 µM [cytotoxic, single point] |
| S=C(Nc1ccc(Br)cc1Cl)Nn1cnnc1 | inactive |
| Cc1cc(Cl)ccc1NS(=O)(=O)c1c(C(=O)N2CCCCCC2)c(C)n(C)c1C | inactive |
| COc1ccc(-c2cc3nc(C)c(CCC(=O)NCc4ccc(F)cc4)c(C)n3n2)c(OC)c1 | inactive |
| Cc1ccc(C(=O)OCC(=O)c2c[nH]c3ccccc23)cc1 | inactive |

| Structure (SMILES) | Potency |
| --- | --- |
| COc1ccc(NC(=O)c2cc(S(=O)(=O)N3CCCC(C)C3)cn2C)c(OC)c1 (stereo not given) | inactive |
| COc1ccc(Cn2nnc3c(=O)[nH]c(C4CCN(S(=O)(=O)c5ccc(C)cc5)CC4)nc32)cc1 | inconclusive: 29.1 µM [cytotoxic, single point] |
| CC(=O)c1ccc(OCCCC(=O)Nc2cc(S(=O)(=O)N(C)C)ccc2C)cc1 | inconclusive: 16.4 µM [cytotoxic, partial curve, poor fit] |
| CN(C)Cc1cc(C(F)(F)F)ccc1C(O)(c1ccccc1)c1ccccc1 | inconclusive: 29.1 µM [cytotoxic, single point] |
| CC(C)=CCOc1ccc2ccc(=O)oc2c1 | inactive |
| COC(=O)c1ccccc1NC(=O)c1ccc2c(c1)CCN2S(=O)(=O)c1ccc(Cl)cc1 | inactive |
| COC(=O)c1ccc(NC(=O)CCCN2C(=O)NC(C)(C)C2=O)cc1 | inactive |
| CCOC(=O)N1CCN(C(=O)c2ccc3c(SCC(=O)O)c4c(nc3c2)CCCC4)CC1 | inconclusive: 29.1 µM [rising, single point] |
| COc1ccc(Cl)cc1CC1(C)C(=O)Nc2c(Cl)cccc21 (stereo not given) | inconclusive: 25.9 µM [cytotoxic, single point] |
| Cc1ccc(NC(=O)/C(C#N)=C(\N)C(Cl)(Cl)Cl)nc1 | active: 18.4 µM |
| O=C(/C=C/c1cccc([N+](=O)[O-])c1)c1ccc([N+](=O)[O-])o1 | inconclusive: 2.31 µM [cytotoxic, full curve, poor fit] |
| COC(=O)c1ccc(Cn2cnc3c(cnn3-c3ccc(C)c(C)c3)c2=O)o1 | inactive |
| Fc1ccc(-c2nc3n(n2)Cc2ccccc2-3)cc1 | inconclusive: 29.1 µM [cytotoxic, single point] |
| Cc1cc2nnc(SCC(=O)NCc3ccco3)n2c2ccccc12 | active: 5.8 µM |
| COCC(=O)n1nc(-c2ccccc2)nc1NCc1ccc(N(C)C)cc1 | inconclusive: 29.1 µM [rising, single point] |
| NC(Cc1ccc(C(F)(F)F)cc1)c1csc(Nc2nccc(C(F)(F)F)n2)n1 (stereo not given) | inconclusive: 18.4 µM [cytotoxic, single point] |
| COc1ccc(SC[C@H](C)CN2CC[C@H](C(C)(C)C)CCC2=O)cc1 | inconclusive: 18.4 µM [cytotoxic, single point] and inconclusive: 16.4 µM [cytotoxic, partial curve] |
| COc1ccc(/C=N/NC(=O)c2nn(-c3ccc(Cl)cc3)c(=O)c3c(N)scc23)cc1 | inactive |
| O=C(c1cccc(Cl)c1)c1nn(-c2ccccc2)c(=O)cc1C(F)(F)F | inconclusive: 25.9 µM [cytotoxic, single point] |
| Clc1ccc(-c2c[n+](Cc3ccc(Br)cc3)c3n2CCCCC3)cc1 | inconclusive: 20.6 µM [cytotoxic, partial curve, poor fit] |
| CCCCCCCC(=O)NNC(=O)c1c(O)c2ccccc2n(CC)c1=O | inconclusive: 18.4 µM [cytotoxic, single point] |
| O=c1[nH]cnc2c1ncn2[C@@H]1O[C@H](COS(=O)(=O)O)[C@@H](O)[C@H]1O | inconclusive: 23.1 µM [cytotoxic, partial curve] |
